These are yes or no findings as the source states them, for the method shown. Binding seen in cells or lysates may run through a third protein. Some results given as binding are weak or reduced against the parent protein; the word gives no strength. For part of these data: Tags and fused reporters may be left off the sequences shown.
Legend:
Assay in all cases: co-IP; 25 mg crude lysate of yeast strains with a C-terminally TAP-tagged SAGA component and Flag-Spt7, purified on IgG agarose; bound protein separated by 5% SDS-PAGE, Flag-Spt7 forms detected with anti-Flag antibody
[1] = target: T1, C-terminally TAP-tagged Ada2 (S. cerevisiae) (UniProt Q02336)
T1 sequence: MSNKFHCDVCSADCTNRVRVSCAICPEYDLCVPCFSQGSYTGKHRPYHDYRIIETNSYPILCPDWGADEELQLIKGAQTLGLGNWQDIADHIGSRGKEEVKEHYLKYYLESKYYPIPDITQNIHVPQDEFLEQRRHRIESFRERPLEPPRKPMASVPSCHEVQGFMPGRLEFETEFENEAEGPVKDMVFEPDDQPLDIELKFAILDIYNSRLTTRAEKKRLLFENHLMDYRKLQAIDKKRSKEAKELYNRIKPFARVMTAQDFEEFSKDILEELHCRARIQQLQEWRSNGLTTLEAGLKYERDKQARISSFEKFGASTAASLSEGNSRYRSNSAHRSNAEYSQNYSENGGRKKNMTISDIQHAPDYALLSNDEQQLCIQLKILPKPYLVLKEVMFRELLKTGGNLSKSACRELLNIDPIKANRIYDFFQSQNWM

The chains behind the UniProt entries cited, without tags or fusion partners.
UniProt Q03330: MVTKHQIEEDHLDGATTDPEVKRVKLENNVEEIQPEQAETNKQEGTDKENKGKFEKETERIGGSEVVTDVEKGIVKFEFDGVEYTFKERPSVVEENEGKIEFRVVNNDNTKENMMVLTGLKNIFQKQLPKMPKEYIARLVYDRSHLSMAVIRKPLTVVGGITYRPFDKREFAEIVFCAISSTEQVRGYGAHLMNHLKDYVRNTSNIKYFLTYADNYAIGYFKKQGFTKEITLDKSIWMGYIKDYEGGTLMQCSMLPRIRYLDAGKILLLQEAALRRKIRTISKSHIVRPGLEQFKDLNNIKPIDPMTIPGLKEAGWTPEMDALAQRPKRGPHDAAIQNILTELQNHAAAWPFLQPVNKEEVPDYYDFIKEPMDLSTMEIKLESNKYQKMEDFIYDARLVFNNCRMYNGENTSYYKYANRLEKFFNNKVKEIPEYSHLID
UniProt P35177: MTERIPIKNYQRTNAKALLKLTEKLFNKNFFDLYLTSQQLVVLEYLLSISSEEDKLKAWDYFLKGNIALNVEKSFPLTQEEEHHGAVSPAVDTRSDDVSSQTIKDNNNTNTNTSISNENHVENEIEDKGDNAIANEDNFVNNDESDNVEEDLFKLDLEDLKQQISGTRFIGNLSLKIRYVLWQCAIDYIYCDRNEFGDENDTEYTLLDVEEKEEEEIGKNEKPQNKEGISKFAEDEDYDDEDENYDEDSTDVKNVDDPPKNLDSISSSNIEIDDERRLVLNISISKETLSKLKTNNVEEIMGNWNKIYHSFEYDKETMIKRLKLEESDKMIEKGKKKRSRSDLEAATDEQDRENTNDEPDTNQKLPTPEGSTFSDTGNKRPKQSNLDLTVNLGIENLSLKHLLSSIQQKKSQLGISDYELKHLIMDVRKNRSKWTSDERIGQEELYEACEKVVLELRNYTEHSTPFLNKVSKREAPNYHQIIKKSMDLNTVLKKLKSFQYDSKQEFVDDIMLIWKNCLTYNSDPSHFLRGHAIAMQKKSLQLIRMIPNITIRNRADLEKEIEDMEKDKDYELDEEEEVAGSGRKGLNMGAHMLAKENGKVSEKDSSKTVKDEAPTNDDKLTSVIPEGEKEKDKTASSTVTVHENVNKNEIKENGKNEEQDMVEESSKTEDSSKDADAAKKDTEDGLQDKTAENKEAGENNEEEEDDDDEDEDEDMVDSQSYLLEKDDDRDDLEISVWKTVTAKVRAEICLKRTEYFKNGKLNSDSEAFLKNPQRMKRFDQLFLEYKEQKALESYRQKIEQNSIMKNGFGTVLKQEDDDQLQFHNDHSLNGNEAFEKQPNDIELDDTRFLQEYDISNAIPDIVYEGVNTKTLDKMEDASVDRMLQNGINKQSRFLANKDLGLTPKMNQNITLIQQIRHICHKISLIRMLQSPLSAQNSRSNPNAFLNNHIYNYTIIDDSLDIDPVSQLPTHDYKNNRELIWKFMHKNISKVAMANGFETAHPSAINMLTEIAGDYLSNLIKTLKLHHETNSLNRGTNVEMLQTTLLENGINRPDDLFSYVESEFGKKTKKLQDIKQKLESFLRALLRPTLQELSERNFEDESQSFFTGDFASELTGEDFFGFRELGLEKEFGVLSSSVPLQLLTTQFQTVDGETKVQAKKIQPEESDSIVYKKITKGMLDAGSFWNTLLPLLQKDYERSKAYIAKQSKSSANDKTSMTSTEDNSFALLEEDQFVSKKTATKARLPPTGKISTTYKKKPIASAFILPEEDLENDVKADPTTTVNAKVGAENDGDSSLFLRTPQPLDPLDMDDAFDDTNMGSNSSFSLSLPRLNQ

[2] = target: T2, C-terminally TAP-tagged Spt8 (S. cerevisiae) (UniProt P38915)
T2 sequence: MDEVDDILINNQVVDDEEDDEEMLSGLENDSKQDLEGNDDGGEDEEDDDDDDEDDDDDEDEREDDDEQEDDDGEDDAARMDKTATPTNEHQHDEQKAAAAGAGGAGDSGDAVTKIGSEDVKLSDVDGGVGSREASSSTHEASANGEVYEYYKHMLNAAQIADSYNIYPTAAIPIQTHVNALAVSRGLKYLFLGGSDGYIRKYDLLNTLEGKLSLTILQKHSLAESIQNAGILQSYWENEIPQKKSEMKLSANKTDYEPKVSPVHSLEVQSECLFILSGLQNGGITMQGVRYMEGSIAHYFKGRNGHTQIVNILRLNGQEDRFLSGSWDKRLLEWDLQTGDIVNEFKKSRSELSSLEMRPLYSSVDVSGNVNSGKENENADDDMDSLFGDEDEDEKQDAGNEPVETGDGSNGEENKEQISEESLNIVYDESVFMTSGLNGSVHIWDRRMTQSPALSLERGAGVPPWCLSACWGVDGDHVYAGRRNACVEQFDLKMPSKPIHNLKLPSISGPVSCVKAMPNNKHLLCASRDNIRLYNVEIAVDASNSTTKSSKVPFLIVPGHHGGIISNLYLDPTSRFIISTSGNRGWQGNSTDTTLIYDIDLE

[3] = target: T3, C-terminally TAP-tagged Taf5 (S. cerevisiae) (UniProt P38129)
T3 sequence: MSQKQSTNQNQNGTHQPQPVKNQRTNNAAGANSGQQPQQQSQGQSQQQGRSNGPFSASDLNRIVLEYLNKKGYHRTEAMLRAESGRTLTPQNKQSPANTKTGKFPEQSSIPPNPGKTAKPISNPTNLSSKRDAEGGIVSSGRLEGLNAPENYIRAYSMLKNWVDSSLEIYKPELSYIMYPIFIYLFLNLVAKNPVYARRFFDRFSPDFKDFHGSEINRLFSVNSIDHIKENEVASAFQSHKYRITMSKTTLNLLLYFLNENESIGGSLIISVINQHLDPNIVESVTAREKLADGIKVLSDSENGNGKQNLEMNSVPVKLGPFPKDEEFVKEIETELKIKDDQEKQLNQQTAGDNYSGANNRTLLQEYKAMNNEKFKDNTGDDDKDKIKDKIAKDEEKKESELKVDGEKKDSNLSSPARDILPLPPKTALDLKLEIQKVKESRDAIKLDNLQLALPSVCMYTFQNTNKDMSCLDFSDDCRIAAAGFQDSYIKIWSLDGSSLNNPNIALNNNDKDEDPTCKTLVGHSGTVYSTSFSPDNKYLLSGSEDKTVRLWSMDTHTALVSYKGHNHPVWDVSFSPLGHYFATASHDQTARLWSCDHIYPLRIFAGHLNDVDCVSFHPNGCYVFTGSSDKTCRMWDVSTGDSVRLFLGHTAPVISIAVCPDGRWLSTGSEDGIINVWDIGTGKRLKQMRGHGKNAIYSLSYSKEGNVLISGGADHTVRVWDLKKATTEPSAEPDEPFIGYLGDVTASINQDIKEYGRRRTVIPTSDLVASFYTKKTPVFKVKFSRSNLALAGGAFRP

[4] = target: T4, C-terminally TAP-tagged Spt3 (S. cerevisiae) (UniProt P06844)
T4 sequence: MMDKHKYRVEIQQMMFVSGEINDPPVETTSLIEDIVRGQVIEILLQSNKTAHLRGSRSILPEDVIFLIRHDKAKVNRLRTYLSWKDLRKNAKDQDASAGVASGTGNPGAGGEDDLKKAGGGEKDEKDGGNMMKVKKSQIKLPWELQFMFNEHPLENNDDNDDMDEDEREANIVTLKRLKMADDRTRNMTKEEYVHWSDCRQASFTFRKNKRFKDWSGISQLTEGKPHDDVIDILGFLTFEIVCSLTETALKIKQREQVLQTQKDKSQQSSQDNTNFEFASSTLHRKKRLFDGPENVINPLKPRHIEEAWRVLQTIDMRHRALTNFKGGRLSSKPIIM

[5] = target: C-terminally TAP-tagged Gcn5 (S. cerevisiae) (UniProt Q03330)
[6] = target: T5, C-terminally TAP-tagged Ubp8 (S. cerevisiae) (UniProt P50102)
T5 sequence: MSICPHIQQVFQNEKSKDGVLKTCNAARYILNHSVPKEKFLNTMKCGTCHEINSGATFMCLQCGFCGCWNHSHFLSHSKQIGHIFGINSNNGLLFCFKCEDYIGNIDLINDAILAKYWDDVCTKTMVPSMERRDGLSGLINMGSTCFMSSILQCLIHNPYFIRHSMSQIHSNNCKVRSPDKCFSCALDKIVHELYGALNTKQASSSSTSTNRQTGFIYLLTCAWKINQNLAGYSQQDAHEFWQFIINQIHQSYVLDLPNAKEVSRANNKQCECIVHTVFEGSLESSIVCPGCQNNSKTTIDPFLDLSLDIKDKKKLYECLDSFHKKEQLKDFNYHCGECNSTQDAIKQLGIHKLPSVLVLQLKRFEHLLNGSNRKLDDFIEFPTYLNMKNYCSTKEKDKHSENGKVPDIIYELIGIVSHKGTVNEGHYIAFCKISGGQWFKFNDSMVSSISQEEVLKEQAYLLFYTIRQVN

binding [1]: binds
binding [2]: binds
binding [3]: binds
binding [4]: binds
binding [5]: binds
binding [6]: binds
Substance: Flag-Spt7, full-length SAGA form (Spt7SAGA) (from UniProt P35177 1-1332)

— PMC1976419
